Test results from PMC11099923.
These are yes or no findings as the source states them, for the method shown. Some entries that bind do so weakly or less than the wild type. Values belong to the substance of their own block, whether it stands above or below them.

Protein sequences, listed by entry. Tags and fused reporters are not part of them. Residues count along the entry.
UniProt P36544, residues 231-495: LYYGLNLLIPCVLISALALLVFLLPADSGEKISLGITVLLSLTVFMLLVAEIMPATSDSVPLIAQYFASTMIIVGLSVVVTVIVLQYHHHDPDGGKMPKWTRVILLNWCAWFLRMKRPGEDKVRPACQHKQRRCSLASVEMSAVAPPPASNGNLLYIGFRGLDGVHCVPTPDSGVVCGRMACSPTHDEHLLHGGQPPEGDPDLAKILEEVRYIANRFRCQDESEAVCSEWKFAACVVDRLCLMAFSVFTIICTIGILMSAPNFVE
UniProt Q9NRD5, residues 19-110: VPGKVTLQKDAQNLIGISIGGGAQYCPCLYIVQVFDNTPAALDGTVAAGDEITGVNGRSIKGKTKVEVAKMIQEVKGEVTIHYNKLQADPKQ

Columns and labels:
[1] = target: human α7nAChR transmembrane and intracellular domains (TMD+ICD) (human) (UniProt P36544); assay: paramagnetic relaxation enhancement (PRE) NMR; 1H-15N TROSY-HSQC of isotope-labeled α7nAChR TMD+ICD with PICK1 PDZ carrying MTSL at C44 and C46; paramagnetic (I) against diamagnetic (I0, 2.5 mM ascorbic acid); LDAO micelles; both purified
[2] = target: human α7nAChR transmembrane and intracellular domains (TMD+ICD) (human) (UniProt P36544); assay: NMR titration; 1H-15N TROSY-HSQC chemical shift perturbation of 15N-labeled α7nAChR TMD+ICD (150-200 μM) with unlabeled PICK1 PDZ (0, 65, 210 μM); 0.5-1% LDAO, 25 mM NaCl, 5 mM sodium acetate pH 5; 45°C; both purified
[3] = target: human α7nAChR transmembrane and intracellular domains (TMD+ICD) (human) (UniProt P36544); assay: saturation transfer difference (STD) NMR; 2D 1H-15N TROSY-HSQC of 15N-labeled α7nAChR TMD+ICD with unlabeled PICK1 PDZ, saturation of the PICK1 I33 1HN peak (~11.6 ppm) for 0.5 s, off-resonance at 20 ppm; LDAO micelles; both purified
[4] = target: PDZ domain of human PICK1, tag cleaved with TEV protease (NMR sample) (human) (UniProt Q9NRD5); assay: NMR titration; 1H-15N TROSY-HSQC chemical shift perturbation of 15N-labeled PICK1 PDZ (50-100 μM) without or with unlabeled α7nAChR TMD+ICD (10 μM); 25 mM Tris pH 7.4, 0.02-0.03% LDAO, 125 mM NaCl; 45°C; both purified

binding [1]: binds
Substance: PDZ domain of human PICK1 labeled with MTSL at C44 and C46 (from UniProt Q9NRD5 19-110) (domain or fragment)

binding [2]: binds | binding [3]: binds
Substance: PDZ domain of human PICK1, tag cleaved with TEV protease (NMR sample) (from UniProt Q9NRD5 19-110) (domain or fragment)

binding [4]: binds
Substance: human α7nAChR transmembrane and intracellular domains (TMD+ICD) (from UniProt P36544 231-495) (domain or fragment)
